Results taken from PubChem BioAssay AID2685 (National Center for Advancing Translational Sciences (NCATS), 2010).
The list shows a part of the results. These are further read-outs of the screen, such as a control signal, another cell line or another target. No call is given for them. The list favours compounds with an active or inconclusive main result. The note in brackets gives the kind of curve behind each potency; many fits are weak.

Assay: qHTS Assay for Lipid Storage Modulators in Drosophila S3 Cells;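 on cell number change: cells counted by Cell Tracker Red CMTPX staining in the red channel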
Settings: BODIPY lipid droplet fluorescence, 18-24 h; for cell number change: measured here: cell count max response, cells fed with added oleic acid
How it was run: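 Drosophila S3 cells got compounds at several concentrations plus oleic acid (400 uM solution). Laser-scanning cytometry with 488 nm excitation read lipid droplets at 500-530 nm and cells at 575-640 nm. Percent activity was relative to 20 uM Triacsin C.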

[1] = measured here: cell number channel AC50, cells fed with added oleic acid
[2] = measured here: lipid fluorescence (Fed channel) AC50, cells fed with added oleic acid

For FC(F)Oc1ccc(NC(=S)N2CCc3ccccc32)cc1, the cell number change was 74.5%, the AC50 [1] was 0.291 µM [rising, full curve] and the AC50 [2] was 5.8 µM [rising, full curve].
With C=CCN(CC=C)C(=O)c1ccc2nc(Cc3ccc(OC)c(OC)c3)oc2c1 the cell number change was -45.4% and the AC50 [1] was 7.31 µM [falling, partial curve].
With Clc1ccc(-n2ncc3c(NCCCn4ccnc4)ncnc32)cc1 the AC50 [2] was 0.366 µM [rising, partial curve, poor fit].
With CS(=O)(=O)N1CCN(c2ccccc2NC(=O)Cc2ccccc2)CC1 the cell number change was 11.5% and the AC50 [2] was 3.66 µM [rising, single point].
With COc1ccc(/C=N/NC(=O)C(C)n2cnc3ccccc3c2=O)cc1OC (centres undefined) the cell number change was 4.6% and the AC50 [2] was 0.291 µM [rising, full curve, poor fit].
With CC(OC(=O)CCN1C(=O)c2cccc([N+](=O)[O-])c2C1=O)C(=O)Nc1cc(Cl)cc(Cl)c1 (centres undefined) the cell number change was -52.3%, the AC50 [1] was 2.59 µM [falling, full curve] and the AC50 [2] was 2.06 µM [falling, full curve].
In the case of COC(=O)c1cc(C(=O)OC)n(Cc2ccc(Br)cc2)n1, the cell number change is reported as -73.2% and the AC50 [1] is reported as 20.6 µM [falling, single point].
CCOc1cc(C(=O)CCC(=O)OCC(=O)Nc2ccc(F)cc2)ccc1O gave a cell number change of -24%.
In the case of C=C(C)COc1ccc(-c2[nH]ncc2Oc2ccc(OC)cc2)c(O)c1, the cell number change is reported as -25% and the AC50 [2] is reported as 29.1 µM [falling, single point].
In the case of O=C(Nc1nnc(Cc2ccccc2F)s1)Nc1ccccc1F, the cell number change is reported as -1.92% and the AC50 [2] is reported as 0.13 µM [rising, full curve, poor fit].
In the case of COc1ccc(OC)c(S(=O)(=O)NCC(c2ccco2)S(=O)(=O)c2ccccc2)c1 (centres undefined), the cell number change is reported as 16.4% and the AC50 [2] is reported as 10.3 µM [rising, partial curve, poor fit].
Work on Cc1ccc(N=C2NC(=O)CC(C(=O)Nc3ccc4c(c3)OCO4)S2)cc1 (centres undefined) yielded a cell number change of 46.8%.
With CCOC(=O)CN1C(=O)C(CC)Oc2ccc(Cl)cc21 (centres undefined) the cell number change was 14.9% and the AC50 [2] was 9.2 µM [rising, partial curve, poor fit].
For CC(C)(C)NC(=O)COc1ccc(S(=O)(=O)N2CCCC2)cc1, the cell number change was 8.39% and the AC50 [2] was 16.4 µM [falling, single point].
CCOc1ccc(C(C(=O)NC(C)(C)C)N(CCOC)C(=O)CCC(=O)Nc2ccccn2)cc1 (centres undefined) showed a cell number change of -21.4%.
In the case of CCC(C)(C)NC(=O)C(c1cccc(OC)c1OC)N(CCOC)C(=O)CCC(=O)Nc1cc(C)on1 (centres undefined), the cell number change is reported as 34.6%, the AC50 [1] is reported as 32.6 µM [rising, single point] and the AC50 [2] is reported as 29.1 µM [falling, single point].
For O=C(CNC(=O)c1sc2ccccc2c1Cl)NCc1ccc(F)cc1, the AC50 [1] was 0.651 µM [rising, full curve].
For CCCCn1c(=N)n(CC(=O)c2ccc(Br)s2)c2ccccc21, the cell number change was -16.5% and the AC50 [2] was 32.6 µM [falling, single point].
For Cc1ccccc1C(=O)NC(CC(C)C)C(=O)Nc1cccc(S(=O)(=O)N(C)C)c1 (centres undefined), the cell number change was -18%, the AC50 [1] was 5.17 µM [rising, single point] and the AC50 [2] was 2.06 µM [rising, partial curve].
In the case of CCc1ccccc1NC(=O)CSc1nnc(-c2ccco2)n1N, the cell number change is reported as -0.204% and the AC50 [2] is reported as 0.184 µM [rising, full curve].
For O=C(O)/C(=C\c1ccccc1OC(F)F)Sc1nnc(-c2ccc(F)cc2)o1, the cell number change was -8.53%.
In the case of CN1CCN(S(=O)(=O)c2ccc(Cl)c3ccccc23)CC1, the cell number change is reported as 19.8%, the AC50 [1] is reported as 1.84 µM [rising, partial curve, poor fit] and the AC50 [2] is reported as 11.6 µM [rising, single point].
In the case of CCCOc1ccc(C(=O)CCC(=O)OC(C)C(=O)Nc2ccc(NC(C)=O)cc2)cc1 (centres undefined), the cell number change is reported as 47.9%, the AC50 [1] is reported as 6.51 µM [falling, single point] and the AC50 [2] is reported as 2.06 µM [falling, partial curve].
With O=C(Cn1cc([N+](=O)[O-])ccc1=O)N1CCCc2ccccc21 the cell number change was -0.694% and the AC50 [2] was 0.517 µM [falling, full curve].
With CCOCCCNC(=O)c1cc2c(s1)-c1ccccc1SC2 the cell number change was 9.15% and the AC50 [2] was 29.1 µM [falling, single point].
For N/C(=N\OC(=O)Nc1ccc(Cl)cc1)c1ncc(C(F)(F)F)cc1Cl, the cell number change was -15.6% and the AC50 [2] was 6.51 µM [falling, partial curve].
With O=c1cc(O)nc(SCc2ccccc2)n1-c1ccc(Cl)cc1 the cell number change was 13.3%.
In the case of Cc1ccc(S(=O)(=O)C(C)C(=O)NCCS(=O)(=O)c2ccc(Cl)cc2)cc1 (centres undefined), the cell number change is reported as -30.1% and the AC50 [2] is reported as 18.4 µM [falling, single point].
With COc1cccc(OC)c1C(=O)N1CCN(Cc2ccc3c(c2)OCO3)CC1 the cell number change was -34.6% and the AC50 [1] was 32.6 µM [falling, single point].
For CC(C)c1ccc(/C=C2\NC(=O)NC2=O)cc1, the cell number change was -35.2% and the AC50 [1] was 11.6 µM [falling, partial curve, poor fit].
With Cc1ccccc1N1C(=O)C2ON(c3ccccc3)C(c3ccncc3)C2C1=O (centres undefined) the cell number change was 7.15%.
CCCCCCC1CCC(C(=O)Nn2c(C)nc3ccccc3c2=O)CC1 (centres undefined) showed a cell number change of -51.2%.
In the case of c1ccc(-c2ccccc2OCCn2cncn2)cc1, the AC50 [2] is reported as 0.00461 µM [rising, full curve, poor fit].
With CCCCCOc1ccc(CSc2n[nH]c(C)n2)cc1 the cell number change was -15.1% and the AC50 [2] was 29.1 µM [falling, single point].
For O=C(CNCC1CCCCC1)Nc1ccccc1N1CCCCC1, the cell number change was -47.2%, the AC50 [1] was 5.8 µM [falling, partial curve, poor fit] and the AC50 [2] was 0.184 µM [falling, full curve, poor fit].
For CCN(Cc1cc2cc(C)ccc2[nH]c1=O)C(=O)c1cccc([N+](=O)[O-])c1, the cell number change was -3.27% and the AC50 [1] was 6.51 µM [rising, single point].
For O=C(c1ccc2c(c1)OCO2)N1CCN(c2ccccn2)CC1, the cell number change was 31.3%, the AC50 [1] was 1.64 µM [rising, full curve] and the AC50 [2] was 2.06 µM [rising, full curve].
For CS(=O)(=O)Nc1ccc([N+](=O)[O-])cc1Oc1ccccc1, the cell number change was -22.5% and the AC50 [2] was 29.1 µM [falling, single point].
